Reference: publication PMC4740867
No constants are given. Whether binding was seen depends on the method and setting. In cells and extracts the contact can be indirect. Sequences can lack the tags named with a protein.

Target: T1, FLAG-PUMA (human) (UniProt Q9BXH1)
T1 sequence: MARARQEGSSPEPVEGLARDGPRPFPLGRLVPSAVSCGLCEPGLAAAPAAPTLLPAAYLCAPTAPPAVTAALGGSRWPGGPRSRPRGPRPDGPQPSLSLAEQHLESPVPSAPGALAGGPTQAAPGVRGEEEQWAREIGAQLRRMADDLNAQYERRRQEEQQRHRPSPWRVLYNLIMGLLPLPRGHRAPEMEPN
Test: co-IP; SVEC cells stably expressing PUMA or BIMs 2A BCL-xL, without or with ABT-737; lysates in 1% Triton-X 100 buffer (20 mM Tris-Cl pH 7.4, 135 mM NaCl), anti-FLAG M2 affinity gel 16 h at 4 °C, eluted with FLAG peptide, immunoblot

binding: no binding
B1: BAK (protein, UniProt O08734 1-209)
chain: MASGQGPGPPKVGCDESPSPSEQQVAQDTEEVFRSYVFYLHQQEQETQGAAAPANPEMDNLPLEPNSILGQVGRQLALIGDDINRRYDTEFQNLLEQLQPTAGNAYELFTKIASSLFKSGISWGRVVALLGFGYRLALYVYQRGLTGFLGQVTCFLADIILHHYIARWIAQRGGWVAALNFRRDPILTVMVIFGVVLLGQFVVHRFFRS
